Patent US20200010413A1, “Benzoquinone derivatives for treatment of cancer and methods of making the benzoquinone derivatives” (United Arab Emirates University, priority 2016, published 2020)

Test system: telomeric G-quadruplex DNA AGGG(TTAGGG)3
Assay: UV-Vis absorption titration, Scatchard plot and molar ratio method
Type: binding, human
Conditions: linear or nonlinear Scatchard plot
Description: Telomeric G-quadruplex DNA was prepared by heating gently 2.0 ml of stock single stranded 5′-[…]-3′ DNA (SEQ ID NO: 1) up to 95.0° C. Resultant solution was incubated at 95.0° C. for 10 min. The solution was left to cool gently down to room temperature, then kept in fridge at 4.0° C. overnight before use. A 10^−5 M fluorescein labeled G-quadruplex DNA was prepared similarly using 5′-Flu-telomeric DNA.
Successive amounts of G-quadruplex DNA (AGGG(TTAGGG)3, 1.44×10^−4 M) were added to 1.00 ml of each BQ (5×10^−6 M) in Tris-KCl buffer, pH 7.4. Solution was shacked well after each addition, incubated for 3 min at room temperature and its absorbance was scanned in the range 200-600 nm. Titration was stopped when no change in absorbance was observed. The experiment was reversed by adding successive amounts of the each BQ (1×10^−3 M) to 1.0 ml of 4×10^−6 M G-quadruplex DNA.
The molar ratio method based on measuring UV-Vis absorption was used for determining stoichiometry of G-quadruplex DNA interactions with BQs. A 1.00 ml BQs (5×10^−6 M) was titrated with telomere G-quadruplex (1.44×10^−4 M) in Tris-KCl buffer, pH 7.4. The solution was shacked well after each addition, incubated for 3.0 min at room temperature and scanned in the range 200-600 nm. A plot of absorbance versus molar ratio [BQs]/[DNA] was constructed.
Binding affinity of the BQs towards telomere G-quadruplex DNA were estimated using Scatchard model based on the above UV-Vis absorption titration. Scatchard plot was constructed as
Wherein r is the number of moles of the BQ bound to one mole of telomere G-quadruplex DNA (Cb/[G-quadruplex DNA], Cf is the free BQ's concentration, n is number of equivalent binding sites per G-quadruplex molecule and K is the binding constant. The free and bound concentrations of BQ (Cf and Cb) are calculated using Cb=Ctotal−Cf, where Ctotal is the concentration of BQ at zero addition of G-quadruplex and Cf is calculated using Cf=Ctotal(1−α). The fraction of BQ bound to G-quadruplex (α) is calculated using
where Af, A and Ab are the absorbance at zero addition, after each addition and at saturation, respectively. Linear plots of
versus r give slope and intercept equals to K and n, respectively. For nonlinear plots, the modified Scatchard equation
was used. Plots of r against Cf were subjected to nonlinear fitting to get the values of K and n.

O=C1C=C(NCCN2CCCC2)C(=O)C=C1NCCN1CCCC1 [BQ9, 2,5-bis((2-(pyrrolidin-1-yl)ethyl)amino)-1,4-benzoquinone]
type of binding sites: one type of binding sites

COc1ccc(CNC2=CC(=O)C(NCc3ccc(OC)c(OC)c3)=CC2=O)cc1OC [BQ12, 2,5-bis-(3,4-dimethoxybenzylamino)-1,4-benzoquinone]
type of binding sites: one type of binding sites

O=C1C=C(Nc2ccc(F)cc2)C(=O)C=C1Nc1ccc(F)cc1 [BQ4, 2,5-bis-(4-fluoroanilino)-1,4-benzoquinone]
type of binding sites: one type of binding sites

O=C1C=C(Nc2ccccc2)C(=O)C=C1Nc1ccccc1 [BQ5, 2,5-bis-anilino-1,4-benzoquinone]
type of binding sites: one type of binding sites

O=C1C=C(Nc2cc(F)c(F)c(F)c2)C(=O)C=C1Nc1cc(F)c(F)c(F)c1 [BQ2, 2,5-bis-(3,4,5-trifluoroanilino)-1,4-benzoquinone]
type of binding sites: one type of binding sites

O=C1C=C(NCc2ccc(C(F)(F)F)cc2)C(=O)C=C1NCc1ccc(C(F)(F)F)cc1 [BQ10, 2,5-bis-(4-trifluoromethylbenzylamino)-1,4-benzoquinone]
type of binding sites: one type of binding sites

Some compounds share one wording; it may come from a single statement.
